# Measurements reported in patent US20070185089A1, “Benzazepine derivatives for the treatment of neurological and psychiatric disorders” (Glaxo Group Limited, priority 2004, published 2007).
# The chains behind the UniProt entries cited, without tags or fusion partners. Where a name states a change or a piece, a line headed by the entry shows the natural chain unless it says otherwise.
# UniProt Q9Y5N1: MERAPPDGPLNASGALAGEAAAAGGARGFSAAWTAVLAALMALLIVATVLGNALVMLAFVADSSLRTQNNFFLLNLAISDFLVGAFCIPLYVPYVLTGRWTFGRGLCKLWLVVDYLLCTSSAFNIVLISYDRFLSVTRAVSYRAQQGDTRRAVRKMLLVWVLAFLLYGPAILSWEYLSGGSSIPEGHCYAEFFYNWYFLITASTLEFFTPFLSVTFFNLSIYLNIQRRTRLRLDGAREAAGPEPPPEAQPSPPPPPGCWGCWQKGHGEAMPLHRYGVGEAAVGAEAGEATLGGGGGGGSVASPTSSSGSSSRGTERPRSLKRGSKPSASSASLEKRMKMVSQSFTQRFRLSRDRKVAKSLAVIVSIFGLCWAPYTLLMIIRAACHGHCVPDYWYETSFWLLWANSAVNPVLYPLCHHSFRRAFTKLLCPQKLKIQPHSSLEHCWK
# UniProt P35367, whole entry: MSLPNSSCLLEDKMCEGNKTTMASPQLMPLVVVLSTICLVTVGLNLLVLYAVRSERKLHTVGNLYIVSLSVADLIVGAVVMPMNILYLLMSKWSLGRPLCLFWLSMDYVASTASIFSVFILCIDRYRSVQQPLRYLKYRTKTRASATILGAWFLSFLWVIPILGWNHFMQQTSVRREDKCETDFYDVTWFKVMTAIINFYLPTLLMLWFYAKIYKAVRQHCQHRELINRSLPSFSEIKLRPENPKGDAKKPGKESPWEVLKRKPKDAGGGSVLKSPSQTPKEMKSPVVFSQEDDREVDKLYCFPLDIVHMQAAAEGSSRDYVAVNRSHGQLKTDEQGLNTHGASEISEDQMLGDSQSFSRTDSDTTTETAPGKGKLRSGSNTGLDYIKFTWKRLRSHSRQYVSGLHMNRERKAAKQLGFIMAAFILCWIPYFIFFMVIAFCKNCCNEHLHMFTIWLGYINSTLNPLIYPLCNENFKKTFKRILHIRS
# Values joined by “and” are separate entries in the source; they are usually repeats but may differ in a detail not shown here. Identical values can stand only once. Some results were stated once for a whole list of compounds, not compound by compound. At least one structure is not confirmed: it was looked up by name or label, or the drawing left a doubt.
# Experiments:
# [1] = biological target: T1, histamine H3 receptor (Homo sapiens, UniProt Q9Y5N1); assay: Histamine H3 functional antagonist assay (method A), [35S]-GTPγS SPA on membranes; format: biochemical; conditions: histamine at EC80
# T1 construct: expressed in transfected cells; host or cells: CHO K1 cells carrying pSwitch, transfected with pGeneH3; mifepristone-induced; clone 3H3; membranes
# [2] = biological target: T2, human H1 receptor (Homo sapiens, UniProt P35367); assay: Histamine H1 functional antagonist assay (FLIPR, cell fluorescence); format: cell-based; conditions: CHO cells expressing human H1 receptor, histamine at EC80
# T2 construct: expressed in transfected cells
SMILES,antagonism in the histamine H3 functional antagonist assay (method A) [1],antagonism in the histamine H1 functional antagonist assay [2] [pKb]
"O=S(=O)(c1cccc2nonc12)N1CCN(c2ccc3c(c2)CCN(C2CCCC2)CC3)CC1 [Example E65, 7-[4-(2,1,3-Benzoxadiazol-4-ylsulfonyl)-1-piperazinyl]-3-cyclopentyl-2,3,4,5-tetrahydro-1H-3-benzazepine]",> 6.5 pKb,< 6.3
"O=S(=O)(c1ccc(C(F)(F)F)cc1)N1CCN(c2ccc3c(c2)CCN(C2CCCC2)CC3)CC1 [Example E51, 3-Cyclopentyl-7-(4-{[4-(trifloromethyl)phenyl]sulfonyl}-1-piperazinyl)-2,3,4,5-tetrahydro-1H-3-benzazepine]",> 6.5 pKb,< 6.3
"O=S(=O)(c1ccc(Oc2ccccc2)nc1)N1CCN(c2ccc3c(c2)CCN(C2CCCC2)CC3)CC1 [Example E72, 3-Cyclopentyl-7-(4-{[6-(phenyloxy)-3-pyridinyl]sulfonyl}-1-piperazinyl)-2,3,4,5-tetrahydro-1H-3-benzazepine]",> 6.5 pKb,< 6.3
"O=S(=O)(c1ccc(-c2cnco2)s1)N1CCN(c2ccc3c(c2)CCN(C2CCCC2)CC3)CC1 [Example E53, 3-Cyclopentyl-7-(4-{[5-(1,3-oxazol-5-yl)-2-thienyl]sulfonyl}-1-piperazinyl)-2,3,4,5-tetrahydro-1H-3-benzazepine]",> 6.5 pKb,< 6.3
"O=C(O)C(F)(F)F.O=C(c1ccc(Cl)c(Cl)c1)N1CCN(c2ccc3c(c2)CCN(C2CCCC2)CC3)CC1 [Example E97, 3-Cyclopentyl-7-{4-[(3,4-dichlorophenyl)carbonyl]-1-piperazinyl}-2,3,4,5-tetrahydro-1H-3-benzazepine trifluoroacetate salt]",> 6.5 pKb,< 6.3
"O=C1CCCN1c1ccc(N2CCC(c3ccc4c(c3)CCN(C3CCC3)CC4)CC2)nc1 [Example E228, 1-{6-[4-(3-Cyclobutyl-2,3,4,5-tetrahydro-1H-3-benzazepin-7-yl)-1-piperidinyl]-3-pyridinyl}-2-pyrrolidinone]",> 9.0 pKb and > 6.5 pKb,< 6.3
"O=C(c1ccc2nonc2c1)N1CCC(c2ccc3c(c2)CCN(C2CCC2)CC3)CC1 [Example E211, 7-[1-(2,1,3-benzoxadiazol-5-ylcarbonyl)-4-piperidinyl]-3-cyclobutyl-2,3,4,5-tetrahydro-1H-3-benzazepine]",> 9.0 pKb and > 6.5 pKb,< 6.3
"O=S(=O)(c1cc2cccnc2s1)N1CCN(c2ccc3c(c2)CCN(C2CCCC2)CC3)CC1 [Example E37, 3-Cyclopentyl-7-[4-(thieno[2,3-b]pyridin-2-ylsulfonyl)-1-piperazinyl]-2,3,4,5-tetrahydro-1H-3-benzazepine]",> 6.5 pKb,< 6.3
"O=S(=O)(c1ccccc1C(F)(F)F)N1CCN(c2ccc3c(c2)CCN(C2CCCC2)CC3)CC1 [Example E70, 3-Cyclopentyl-7-(4-{[2-(trifluoromethyl)phenyl]sulfonyl}-1-piperazinyl)-2,3,4,5-tetrahydro-1H-3-benzazepine]",> 6.5 pKb,< 6.3
"c1cc(-c2ccc3c(c2)CCN(C2CCC2)CC3)ccn1 [Example E229, 3-Cyclobutyl-7-(4-pyridinyl)-2,3,4,5-tetrahydro-1H-3-benzazepine]",> 9.0 pKb and > 6.5 pKb,< 6.3
